In this experiment the target is T1, NEPH1 (endogenous, podocytes) (human (endogenous in cultured human podocytes)) (UniProt Q96J84).
T1 sequence: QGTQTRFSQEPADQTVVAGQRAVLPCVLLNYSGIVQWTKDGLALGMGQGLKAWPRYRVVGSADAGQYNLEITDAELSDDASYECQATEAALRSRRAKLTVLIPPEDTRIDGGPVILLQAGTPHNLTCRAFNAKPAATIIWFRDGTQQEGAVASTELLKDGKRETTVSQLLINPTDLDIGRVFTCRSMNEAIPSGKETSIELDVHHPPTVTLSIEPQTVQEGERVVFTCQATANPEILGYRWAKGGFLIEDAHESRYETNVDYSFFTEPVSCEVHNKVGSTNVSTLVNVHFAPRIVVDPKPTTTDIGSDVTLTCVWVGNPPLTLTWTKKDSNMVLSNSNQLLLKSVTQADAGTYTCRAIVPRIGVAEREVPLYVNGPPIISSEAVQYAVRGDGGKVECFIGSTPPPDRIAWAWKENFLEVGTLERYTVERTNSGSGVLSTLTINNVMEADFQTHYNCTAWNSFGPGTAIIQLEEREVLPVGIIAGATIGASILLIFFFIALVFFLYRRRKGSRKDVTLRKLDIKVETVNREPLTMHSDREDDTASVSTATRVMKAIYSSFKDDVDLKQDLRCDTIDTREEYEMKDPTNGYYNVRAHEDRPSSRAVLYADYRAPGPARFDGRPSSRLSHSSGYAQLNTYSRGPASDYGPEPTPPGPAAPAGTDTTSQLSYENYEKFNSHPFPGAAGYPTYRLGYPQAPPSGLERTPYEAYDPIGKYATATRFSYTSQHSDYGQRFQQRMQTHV
Nature of the experiment: affinity purification with mass spectrometry.

Results are given in words; binding and its absence hold for the method and conditions named. Binding seen in cells or lysates may run through a third protein. These calls come from enrichment with a bait or labelling near it, and not all partners need be listed.

Consider “SHP-2 (endogenous, podocytes) (from UniProt Q06124 1-593) (enzyme)”, for which the binding result was “binds”.

The values are drawn from article doi:10.1101/2020.05.04.077941.
